The full ranking holds about 1,600 compounds; the median of “plate-normalized OD600 growth (mean of duplicates)” is about 0.31, and the lowest 2% start at about 0.23. Some of the results follow.
Tested on: Escherichia coli BW25113
Experiment: plate-normalized OD600 growth (mean of duplicates) (OD600 (normalized)); higher = more growth (less inhibition)
Settings: 10 µM
Description: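 E. coli BW25113 in LB (100 µl, 96-well, no shaking) was exposed to 10 µM of each compound (here the ChemBridge subset of a ~30,000-member library) and grown at 37°C for 24 h or 15°C for 48 h, in duplicate. Growth was read as OD600 and the duplicate ODs were normalized across screening plates to correct plate-to-plate variation.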

Row | SMILES | plate-normalized OD600 growth (temperature: 15°C, 48 h) | plate-normalized OD600 growth (temperature: 37°C, 24 h)
1 | CCOc1ccc(NC(=O)CC2Nc3ccccc3NC2=O)cc1 (stereo not given) | 0.273 | 0.648
2 | OCCN(Cc1ccccc1)Cc1cccc(F)c1 | 0.248 | 0.596
3 | CS(=O)(=O)N1CCN(c2ccc([N+](=O)[O-])c(N3CCCCC3)c2)CC1 | 0.276 | 0.632
4 | COc1ccc(-c2cn3ccccc3n2)cc1F | 0.229 | 0.633
5 | CC1(C)CC(=O)C=C(Nc2ccc(F)c(F)c2)C1 | 0.247 | 0.617
6 | CCn1c2ccccc2c2cc(C3C(C#N)=C(N)OC4=C3C(=O)CCC4)ccc21 (stereo not given) | 0.24 | 0.599
7 | CC(=C1C(=O)c2ccccc2C1=O)N1CCN(c2ccc([N+](=O)[O-])cc2)CC1 | 0.279 | 0.636
8 | Cc1nc2ccccc2n1S(=O)(=O)c1ccc(Cl)cc1 | 0.25 | 0.661
9 | Clc1ccc(CN2CCN(c3ccccn3)CC2)cc1 | 0.233 | 0.655
10 | CC(=O)Nc1ccc2oc(-c3cccc(I)c3)nc2c1 | 0.235 | 0.614
11 | CN(C)c1ccc(CN2CCc3c([nH]c4ccccc34)C2)cc1 | 0.275 | 0.622
12 | N#CC1=C(N)Oc2cc(N)ccc2C1c1cc(Br)cs1 (stereo not given) | 0.27 | 0.631
13 | Cc1c(-c2ccccc2)nc2c3ccccc3ccn12 | 0.244 | 0.611
14 | Cc1onc(-c2ccccc2Cl)c1C(=O)O | 0.285 | 0.639
15 | Cc1cccc(C(=O)Nc2ccc3c(c2)OCO3)c1 | 0.25 | 0.625
16 | COc1cnn(C2CCCCC2)c(=O)c1Cl | 0.253 | 0.613
17 | O=[N+]([O-])c1cccc(C(=NCc2ccccc2)NO)c1 | 0.273 | 0.643
18 | Cc1cc(Cl)c(C(=O)NC(C)C2CC2)cc1Cl (stereo not given) | 0.252 | 0.614
19 | CN(C)CCN(C)Cc1ccc2c(c1)Cc1ccccc1-2 | 0.256 | 0.631
20 | c1ccc2oc(CCCCc3nc4ccccc4o3)nc2c1 | 0.256 | 0.614
21 | Cc1cc(C)c(C2C(C#N)=C(N)OC3=C2C(=O)CC(C)(C)C3)c(C)c1 (stereo not given) | 0.244 | 0.594
22 | NC(=O)NC(=O)Nc1ccc(Cl)cc1 | 0.253 | 0.615
23 | O=C(O)CSc1ccc(Br)cc1 | 0.222 | 0.609
24 | COc1ccc(Nc2nc(-c3ccc(F)cc3F)cs2)cc1 | 0.251 | 0.633
25 | O=C(O)c1cccc(S(=O)(=O)N2CCCC2)c1 | 0.242 | 0.646
26 | Cc1c(C(=O)NC2CCCC2)cccc1[N+](=O)[O-] | 0.252 | 0.636
27 | COc1cc2c(cc1OC)CC1(CCCCC1)N=C2 | 0.238 | 0.625
28 | N#CC(=Cc1cccc(Br)c1)c1nc2ccccc2[nH]1 | 0.262 | 0.653
29 | Cc1ccc2c(c1)c1c(n2C)C(O)CCC1 (stereo not given) | 0.256 | 0.628
30 | CC(c1ccccc1)C1CC(=O)N(c2ccc(I)cc2)C1=O (stereo not given) | 0.246 | 0.634

Record cards, as listed above:
`COc1ccc(-c2cn3ccccc3n2)cc1F` reads plate-normalized OD600 growth (temperature: 15°C, 48 h): 0.229; plate-normalized OD600 growth (temperature: 37°C, 24 h): 0.633
`Cc1c(-c2ccccc2)nc2c3ccccc3ccn12` reads plate-normalized OD600 growth (temperature: 15°C, 48 h): 0.244; plate-normalized OD600 growth (temperature: 37°C, 24 h): 0.611

From the supplement of paper PMC4371806
